From PubChem BioAssay (NCATS)
This list was built around the results that the source calls inconclusive (neither active nor inactive); the mix of calls is not that of the screen. Potencies of inconclusive entries are doubtful fits and often do not repeat. Active and inactive are the calls of the source. Calls come from the whole dose curve; as a rule, active = well fitted inhibition curve with a large enough effect; inconclusive = small, poorly fitted or top-dose-only effect, or another doubt; inactive = no such curve, though single readings can be large or run the other way.

Amino acid sequences for entries named in this document (tags omitted). A change or cut given only in a name is not applied to a line headed by its entry.
UniProt Q9UNA4: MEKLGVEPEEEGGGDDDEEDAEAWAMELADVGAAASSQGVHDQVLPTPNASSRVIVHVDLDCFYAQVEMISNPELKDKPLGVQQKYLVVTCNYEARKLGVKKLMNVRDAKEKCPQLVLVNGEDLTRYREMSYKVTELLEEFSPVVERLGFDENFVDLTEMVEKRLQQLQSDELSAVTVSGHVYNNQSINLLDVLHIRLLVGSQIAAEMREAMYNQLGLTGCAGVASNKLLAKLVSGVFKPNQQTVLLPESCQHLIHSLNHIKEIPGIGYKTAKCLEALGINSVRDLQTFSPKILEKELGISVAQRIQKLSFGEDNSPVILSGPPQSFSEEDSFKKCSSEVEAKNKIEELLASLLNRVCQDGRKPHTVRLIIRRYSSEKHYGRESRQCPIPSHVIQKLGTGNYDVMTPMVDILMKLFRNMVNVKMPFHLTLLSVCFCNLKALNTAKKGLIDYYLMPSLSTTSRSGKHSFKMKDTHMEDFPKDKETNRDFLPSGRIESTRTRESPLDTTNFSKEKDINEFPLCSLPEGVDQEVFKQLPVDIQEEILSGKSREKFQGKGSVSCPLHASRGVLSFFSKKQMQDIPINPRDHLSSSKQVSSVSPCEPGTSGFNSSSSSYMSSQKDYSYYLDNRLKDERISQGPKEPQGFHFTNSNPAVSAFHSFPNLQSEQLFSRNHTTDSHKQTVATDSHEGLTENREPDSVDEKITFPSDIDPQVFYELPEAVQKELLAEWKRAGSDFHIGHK

These compounds were tested against DNA polymerase iota (Homo sapiens) (UniProt Q9UNA4) (assay: qHTS for Inhibitors of Polymerase Iota: Confirmatory Assay for Cherry-picked Compounds (AID 720496)). Details: Pol iota primer extension, TAMRA/BHQ fluorescence.
From the text: DNA polymerases, such as polymerase iota (Pol iota), are involved in DNA repair. Pol iota specifically plays an important role in translesion synthesis, where the normal high-fidelity DNA polymerases cannot proceed and DNA synthesis stalls. […] Thus, while Pol eta and most likely Pol iota's normal functions are to protect humans against the deleterious consequences of DNA damage, under certain conditions they can have deleterious effects on human health. As a consequence, small molecule inhibitors of Pol iota (identified from a high throughput replication assay) have potential therapeutic applications. A 1536-well format, fluorescence based, high-throughput screen (AID 588590) is developed in collaboration with the National Institute of Child Health & Human Development (NICHD) to screen for inhibitors of the Pol eta enzyme. This screen is used to validate the activity of the selected compounds from the primary assay against the human Pol eta. Inhibition is the desired outcome for this assay. NIH Chemical Genomics Center [NCGC] NIH Molecular Libraries Probe Centers Network [MLPCN] MLPCN Grant: MH090825 Assay Submitter (PI): Roger Woodgate, NICHD
Three microliters of reagents (buffer in column 3 and 4 as negative control while 10 nM Pol iota in columns 1, 2, and 5-48) were dispensed into a 1536-well black solid-bottom plate. Compounds (23 nL) were transferred via Kalypsys pin tool equipped with 1536-pin array. The plates were then incubated for 15 min at room temperature, and 1 uL of substrate was added to start the reaction for a final concentration of 50 nM. The substrate was made by the annealing of unlabeled oligodeoxynucleotide primer (59-[…]-39) and TAMRA-labeled reporter strand (59-[…]-6-TAMRA-39) to oligodeoxynucleotide template labeled with BHQ-2 (59-BHQ-2-[…]-39) described in detail at the Yamanaka et.al. (PLOS, 2012) reference paper. The assay plates were initially read after 0 min and again after 10 min of kinetic reaction using the PerkinElmer Viewlux reader equipped with 525 nm excitation and 598 nm emission filters.
Potency is the fitted concentration of half-maximal effect.

Question: [O-][n+]1c2ccccc2[n+]([O-])c2cc(O)ccc21 was tested. Which Potency did it give?
Answer: inconclusive: 67 µM [inhibitor, partial curve]

Question: Which Potency does the source give for O=C(Nc1ccc2nc(-c3ccc4nc[nH]c4c3)[nH]c2c1)c1cccs1 here?
Answer: inconclusive: 67 µM [inhibitor, partial curve]

Question: How did the Potency turn out when O=C(O)CN1C(=O)/C(=C\c2cc([N+](=O)[O-])ccc2OCc2ccccc2Cl)SC1=S was run?
Answer: inconclusive: 84.4 µM [inhibitor, single point]

Question: With O=c1c(=O)n(O)c2ccccc2n1O as the compound, how does the Potency read?
Answer: inconclusive: 84.4 µM [inhibitor, single point]

Question: How did the Potency turn out when O=C(O)CN1C(=O)/C(=C\c2cc(Br)ccc2OCc2ccc(Cl)cc2)SC1=S was run?
Answer: inconclusive: 84.4 µM [inhibitor, single point]

Question: N#C/C(=C\c1ccc(OCc2ccc(F)cc2)cc1)C(=O)Nc1cccc(C(=O)O)c1 was tested. Which Potency did it give?
Answer: inconclusive: 42.3 µM [inhibitor, partial curve]

Question: With Nc1ccc(Nc2ccccc2)c(S(=O)(=O)O)c1 as the compound, how does the Potency read?
Answer: active: 47.4 µM

Question: With c1coc(-c2nnc3sc(Cc4cccs4)nn23)c1 as the compound, how does the Potency read?
Answer: inconclusive: 67 µM [inhibitor, partial curve]

Question: COc1ccc2nc3cc(Cl)ccc3c(Nc3ccc(O)c(CN4CCN(C)CC4)c3)c2c1 was tested. Which Potency did it give?
Answer: inconclusive: 37.7 µM [inhibitor, partial curve]

Question: CCc1nnc(NC(=O)c2cc(-c3ccco3)nc3ccccc23)s1 was tested. Which Potency did it give?
Answer: inconclusive: 42.3 µM [inhibitor, partial curve]

Question: Which Potency does the source give for CCOC(=O)c1cc(-c2ccc(N3CCOCC3)cc2)nn1-c1ccccc1C(=O)O here?
Answer: inconclusive: 75.2 µM [inhibitor, partial curve]

Question: Which Potency does the source give for O=C(O)c1ccc(-c2ccc(/C=C3\NC(=O)N(Cc4ccc(Cl)cc4)C3=O)o2)cc1 here?
Answer: active: 37.7 µM

Question: Oc1ccc2ccccc2c1C=NC12CN3CCN(CN(C3)C1)C2 was tested. Which Potency did it give?
Answer: inconclusive: 84.4 µM [inhibitor, single point]

Question: For Fc1cc(F)c2nc(Nc3nc4cc5c(cc4s3)OCO5)sc2c1, which Potency is on record?
Answer: inconclusive: 9.47 µM [inhibitor, full curve]

Question: How did the Potency turn out when Cc1cccc(C)c1-n1cccc1/C=C1\SC(=S)N(c2cccc(C(=O)O)c2)C1=O was run?
Answer: inconclusive: 75.2 µM [inhibitor, single point]

Question: With O=C(O)c1cc(-c2ccc(/C=C3\NC(=O)N(c4ccc(Cl)cc4)C3=O)o2)ccc1Cl as the compound, how does the Potency read?
Answer: active: 21.2 µM

Question: How did the Potency turn out when N#Cc1ccccc1CN1C(=O)S/C(=C/c2cccn2-c2cccc(C(=O)O)c2)C1=O was run?
Answer: active: 67 µM

Question: How did the Potency turn out when CCc1ccccc1Nc1nn2c(=O)c3ccc(C(=O)NCc4cccs4)cc3nc2s1 was run?
Answer: inconclusive: 67 µM [inhibitor, partial curve]

Question: Which Potency does the source give for CC1=Nc2ccccc2/C1=C\c1nc(-c2ccc(F)cc2)oc1O here?
Answer: inconclusive: 42.3 µM [inhibitor, partial curve]

Question: For O=C(CCc1n[nH]c(=O)[nH]c1=O)N/N=C/c1ccco1, which Potency is on record?
Answer: inconclusive: 67 µM [inhibitor, partial curve]

Question: Which Potency does the source give for O=C(O)c1cccc(N2C(=O)c3cc([N+](=O)[O-])cc4cc([N+](=O)[O-])cc(c34)C2=O)c1 here?
Answer: active: 42.3 µM

Question: O=c1c(OC2OC(CO)C(O)C(O)C2OC2OC(CO)C(O)C(O)C2O)c(-c2ccc(O)cc2)oc2cc(O)cc(O)c12 (stereo not given) was tested. Which Potency did it give?
Answer: inconclusive: 75.2 µM [inhibitor, partial curve]

Question: How did the Potency turn out when Cc1ccccc1NS(=O)(=O)c1ccc2[nH]cc(C(=O)NCCc3ccccc3)c(=O)c2c1 was run?
Answer: inconclusive: 67 µM [inhibitor, partial curve]

Question: With COc1ccc2nc(C)cc(SCC(=O)N/N=C/c3ccc(O)c(O)c3)c2c1 as the compound, how does the Potency read?
Answer: inconclusive: 37.7 µM [inhibitor, partial curve]

Question: For CC1=NOC(=O)/C1=C\c1ccc(-c2ccc(Cl)cc2Cl)o1, which Potency is on record?
Answer: inconclusive: 84.4 µM [inhibitor, single point]

Question: With Cc1ccc(-n2cccc2/C=C2\C(=N)N3N=C(c4ccco4)SC3=NC2=O)cc1 as the compound, how does the Potency read?
Answer: inconclusive: 42.3 µM [inhibitor, partial curve]

Question: Cc1cc(C)n2nc(C(=O)OCC(=O)c3cc(C)n(C)c3C)nc2n1 was tested. Which Potency did it give?
Answer: inconclusive: 75.2 µM [inhibitor, partial curve]

Question: With COc1cc(OC)c2c(c1O)OC(c1ccccc1)CC2=O (stereo not given) as the compound, how does the Potency read?
Answer: inconclusive: 75.2 µM [inhibitor, partial curve]

Question: How did the Potency turn out when O=C(O)c1ccc(N2C(=O)c3cccc4c(C(=O)O)ccc(c34)C2=O)cc1 was run?
Answer: active: 15 µM

Question: For C=CCn1c(C)cc(C(=O)Cn2ncc(Cl)c(Cl)c2=O)c1C, which Potency is on record?
Answer: inconclusive: 75.2 µM [inhibitor, partial curve]

Question: With O=C(CSc1nnc(COc2ccccc2Cl)o1)NC(=O)NCc1ccco1 as the compound, how does the Potency read?
Answer: active: 67 µM

Question: With Cc1cc(C)c(S(=O)(=O)/N=C2/C=C(Sc3ncn[nH]3)C(=O)c3ccccc32)cc1C as the compound, how does the Potency read?
Answer: active: 16.8 µM

Question: Which Potency does the source give for O=C(N/N=C/c1cc(Br)c(Br)o1)c1ccc2c(c1)OCCO2 here?
Answer: inconclusive: 67 µM [inhibitor, partial curve]

Question: How did the Potency turn out when O=C(O)c1ccc(N/N=C/c2ccc(-c3cc(Cl)ccc3Cl)o2)cc1 was run?
Answer: inconclusive: 84.4 µM [inhibitor, single point]

Question: CCCCN(C)C1=CC2=CC(=C(C#N)C#N)CCC2CC1 (stereo not given) was tested. Which Potency did it give?
Answer: active: 75.2 µM

Question: Which Potency does the source give for COc1ccc2[nH]c(=O)cc(C(=O)O)c2c1 here?
Answer: inconclusive: 42.3 µM [inhibitor, partial curve]

Question: How did the Potency turn out when O=C1/C(=C/c2ccco2)SC(=S)N1CC1CCCO1 (stereo not given) was run?
Answer: inconclusive: 59.7 µM [inhibitor, partial curve]

Question: With NC(=O)Cn1c(=O)n(Cc2ccco2)c(=O)c2c3c(sc21)CCCCC3 as the compound, how does the Potency read?
Answer: inconclusive: 75.2 µM [inhibitor, partial curve]

Question: Which Potency does the source give for O=C(Nc1ccc(Cl)c(Cl)c1)Nc1nnc(-c2ccncc2)s1 here?
Answer: inconclusive: 33.6 µM [inhibitor, partial curve, poor fit]

Question: How did the Potency turn out when Cc1ccc[n+](-c2nc([O-])sc2C=O)c1 was run?
Answer: inconclusive: 75.2 µM [inhibitor, partial curve]
